Test results: patent publication US20240058365A1, “External Preparation for Treating Epilepsy or Autism Spectrum Disorder” (OSAKA UNIVERSITY, priority 2019, published 2024)

Assay: Solubility of sirolimus in diethylene glycol monoethyl ether
Assay type: physicochemical
Conditions: can be dissolved at up to
From the text: Sirolimus or the sirolimus derivative is soluble in the diethylene glycol ether. Sirolimus dissolves well in the diethylene glycol monoethyl ether, and can be dissolved therein at up to 2.02 W/V %.

solubility in diethylene glycol monoethyl ether: up to 2.02 W/V %
SMILES: CO[C@H]1C[C@@H]2CC[C@@H](C)[C@@](O)(O2)C(=O)C(=O)N2CCCC[C@H]2C(=O)O[C@H]([C@H](C)C[C@@H]2CC[C@@H](O)[C@H](OC)C2)CC(=O)[C@H](C)/C=C(\C)[C@@H](O)[C@@H](OC)C(=O)[C@H](C)C[C@H](C)/C=C/C=C/C=C/1C [Sirolimus, sirolimus]
